# PubChem BioAssay AID1259425, University of Nebraska Medical Center | 2018
# Aim: 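Compare each knockdown with KSR1 silencing using changes in marker transcripts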 (primary screen)
# Cell system: HCT116 human colon cancer cells
# Reagent: siRNA pool against human genes, 50 nM siRNA
# Detection: 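mRNA of six signature genes measured together by branched-DNA assay after 50 nM siRNA pool, blank removed, divided by geometric mean of two housekeeping genes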
# Reading the numbers: BNIP3L mRNA: higher = more BNIP3L transcript after knockdown; NDRG1 mRNA: higher = more NDRG1 transcript after knockdown; BNIP3 mRNA: higher = more BNIP3 transcript after knockdown; ALDOC mRNA: higher = more ALDOC transcript after knockdown
# The whole screen tested about 14,000 reagents; shown is an unselected part. Further read-outs or replicates are left out here. Not stated in the record: the time to read-out.
"BNIP3L mRNA, set 1","NDRG1 mRNA, set 1","BNIP3 mRNA, set 1","ALDOC mRNA, set 1",gene symbol
0.0761,0.296,0.116,0.0153,FOXF1 (forkhead box F1)
0.178,0.107,0.177,0.00685,TCFL5 (transcription factor like 5)
0.125,0.103,0.298,0.0454,SYNPO2L (synaptopodin 2 like)
0.2,0.581,0.128,0.0235,MIS18A (MIS18 kinetochore protein A)
0.127,0.195,0.25,0.0231,SARDH (sarcosine dehydrogenase)
0.107,0.0899,0.153,0.0237,"TFB2M (transcription factor B2, mitochondrial)"
0.186,0.228,0.537,0.0341,CTNND2 (catenin delta 2)
0.0651,0.411,0.262,0.0417,PEPD (peptidase D)
0.0243,0.165,0.196,0.0218,SLIT2 (slit guidance ligand 2)
0.089,0.146,0.222,0.0151,HARS1 (histidyl-tRNA synthetase 1)
0.0843,0.206,0.328,0.017,TMEM59 (transmembrane protein 59)
0.0706,0.334,0.344,0.0231,CSGALNACT2 (chondroitin sulfate N-acetylgalactosaminyltransferase 2)

The list goes on, starting with the last 2 of the part before.
"BNIP3L mRNA, set 1","NDRG1 mRNA, set 1","BNIP3 mRNA, set 1","ALDOC mRNA, set 1",gene symbol
0.0843,0.206,0.328,0.017,TMEM59 (transmembrane protein 59)
0.0706,0.334,0.344,0.0231,CSGALNACT2 (chondroitin sulfate N-acetylgalactosaminyltransferase 2)
0.0661,0.21,0.246,0.0589,OMG (oligodendrocyte myelin glycoprotein)
0.123,0.122,0.281,0.0335,CD37 (CD37 molecule)
0.0866,0.128,0.242,0.0444,TP53TG3 (TP53 target 3)
0.158,0.516,0.208,0.0538,SNRPB (small nuclear ribonucleoprotein polypeptides B and B1)
0.397,0.33,0.468,0.0572,LGI2 (leucine rich repeat LGI family member 2)
0.0698,0.078,0.304,0.0143,PTP4A2 (protein tyrosine phosphatase 4A2)
0.093,0.156,0.292,0.0239,GNPNAT1 (glucosamine-phosphate N-acetyltransferase 1)
0.129,0.68,0.25,0.0434,ABCA3 (ATP binding cassette subfamily A member 3)
